Consider 1 molecule from article PMC7600006, “Dissecting the Cytochrome P450 OleP Substrate Specificity: Evidence for a Preferential Substrate” (Biomolecules, 2020).

The assay addresses cytochrome P450 OleP (Streptomyces antibioticus) (UniProt Q59819). Put plainly: SEC; gel filtration on BioFox 17/1200 SEC (Knauer) in 20 mM Tris·HCl, 200 mM NaCl, pH 8.0; both purified.

Results are given in words; binding and its absence hold for the method and conditions named.

B1: cytochrome P450 OleP (enzyme, UniProt Q59819 1-407)
chain: MTDTHTGPTPADAVPAYPFSLPHALDLDPHYAELRRDEPVSRVRLPYGEGTAWLVTRMSDARIVLGDSRFSTAAATDPATPRMFPTPPEPDGVLAQDPPDHTRLRRLVGKAFTARRVEEMRPRVRSLVDSLLDDMVAHGSPADLVEFLAVPFPVAVICELLGVPLEDRDLFRTFSDAMLSSTRLTAAEIQRVQQDFMVYMDGLVAQRRDAPTEDLLGALALATDNDDHLTKGEIVNMGVSLLIAGHETSVNQITNLVHLLLTERKRYESLVADPALVPAAVEEMLRYTPLVSAGSFVRVATEDVELSTVTVRAGEPCVVHFASANRDEEVFDHADELDFHRERNPHIAFGHGAHHCIGAQLGRLELQEALSALVRRFPTLDLAEPVAGLKWKQGMLIRGLERQIVSW
As to B1, the binding result is listed as “no binding”.
